For one sequence, Kd results are on record in patent US20150376619, “APTAMERS THAT BIND CD271” (VIVONICS, INC., published 2015).

For at least one entry, the source does not settle the construct or the ends of the probe. Protein sequences can lack the tags named with them.

The data set has as its target T1, CD271 (NGFR, p75NTR)/Fc chimera (Homo sapiens) (UniProt P08138).
T1 sequence (looked up, limits assumed): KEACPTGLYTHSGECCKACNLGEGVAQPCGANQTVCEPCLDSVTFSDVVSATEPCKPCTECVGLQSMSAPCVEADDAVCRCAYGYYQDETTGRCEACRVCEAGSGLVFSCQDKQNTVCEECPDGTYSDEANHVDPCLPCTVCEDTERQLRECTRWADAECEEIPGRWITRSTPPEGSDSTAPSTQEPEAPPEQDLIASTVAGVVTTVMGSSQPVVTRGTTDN
In words: SPR. The settings on record: biotinylated for SPR; PBS pH 7.4; aptamer immobilized; p113 text gives the two Kd values in the opposite order (1.1 nM for 1391-Motif); purified recombinant protein; label: biotin; single-stranded DNA.

For the sequence “TACGACTCACTATAGGGATCCAAGAAAGAAAAAGGAGAAAGGGGGGGGGGAATTCCCTTTAGTGAGGGTT [1391-Motif]”, the Kd came out at 19.5 nM.
